# Library screen at single concentrations

Data taken from ChEMBL document CHEMBL3988442, “University of Dundee, Small-Polar-MMV Screening Library” (2021).

Each number is a percent effect as filed.
The record does not define 0% and 100%; most values in the screen are far below 50% and negative numbers occur (in some assays of this library far below -100).
The compounds are a random part of those screened.
A dash means the value is not listed here; it may have been measured.

T. brucei: 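Whole-parasite assay of Trypanosoma brucei over 72 hours; the read-out is not stated. Tested at 30 µM. Direction is inferred from retests: higher values go with stronger inhibition. Values scatter widely below zero; nearly all retest evidence comes from the higher of the two concentrations used. Size under these conditions: about 64,000 compounds, about 940 of them at 50% or above in at least one test.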
Toxoplasma: 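Assay of Toxoplasma gondii numbers, read through their beta-galactosidase reporter with a colour substrate. Concentration: 10 µM. The record gives no direction; the compounds picked for IC50 retests had high values, so higher reads as fewer parasites. About 67,000 compounds were tested under these conditions; 0.38% (about 260) showed 50% or more at least once.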

| structure | T. brucei | Toxoplasma |
|---|---|---|
| `[H][C@]12CCCCN1CCC[C@@]2(O)CN1CCN(c2ccncc2C)CC1` | 7.463 | 4.56 |
| `COCc1ncn2c1CN(C(=O)c1cnc3ccccc3c1)CC2` | -32.31 | 28.96 |
| `CCc1nc(N2CCC3(CCC(=O)N(CCCO)C3)CC2)no1` | -15.95 | 13.43 |
| `CC(=O)N(C)Cc1ccccc1NCc1c(C)noc1C` | -2.595 | 9.758 |
| `CC(=O)N1Cc2nccn2CC(CNC(=O)c2ccnnc2)C1` (stereo not shown) | -2.99 | -0.3723 |
| `COc1c(Br)cc(Br)cc1CNC(C)Cn1cccn1` (stereo not shown) | -23.81 | -1.906 |
| `CCS(=O)(=O)Cc1csc(-c2ccc(S(C)(=O)=O)cc2)n1` | -11.36 | 13.37 |
| `O=C(O)C(F)(F)F.[H][C@@]12CCN(CC3CC3)C[C@]1([H])[C@H](C(=O)NCc1ccco1)CCO2` | -21.92 | -37.47 |
| `Cc1cnn(CCNCC(O)COc2ccc3ccccc3c2)c1` (stereo not shown) | - | -9.883 |
| `CC(C)CCOc1ccc(C(C)NC(=O)Cn2cccnc2=O)cc1` (stereo not shown) | 1.009 | 2.141 |
| `CN(CC(=O)Nc1cc(C(F)(F)F)c[nH]c1=O)Cc1ccccc1` | -39.34 | -2.027 |
| `NC(=O)CCn1ccc(NC(=O)C2(c3ccc(F)cc3)CCC2)n1` | -50.68 | -26.69 |
| `Cc1nc2cc(=O)[nH]n2c(C)c1CNC(=O)C(C)Cc1ccccc1` (stereo not shown) | -73.68 | 3.668 |
| `Cc1nn(C)c(Cl)c1CNCCOc1ccc2c(c1)OCO2` | -18.68 | -2.336 |
| `c1cc(-c2n[nH]cc2-c2ccnc(N3CCCCCC3)n2)ccn1` | 36.75 | -2.238 |
| `O=C(O)C(F)(F)F.[H][C@@]12CCN(c3ncccn3)[C@@]1([H])CCN2S(=O)(=O)c1ccc(F)cc1` | -55.06 | -2.287 |
| `CCn1cc(NC(=O)C2CCN(Cc3ccccc3)CC2)cn1` | 1.977 | -15.7 |
| `Cc1cc(C)n(CC2CCCCN2C(=O)c2ccc3nncn3c2)n1` (stereo not shown) | -3.28 | 10.15 |
| `CCc1nc(CN(C)C2CCN(CC(=O)N(C)C)C2)no1` (stereo not shown) | 0.5903 | -9.941 |
| `Cc1cnn(C2CN(CC(=O)NCCCc3ccccc3)C2)c1` | -13.06 | -5.527 |
| `Cc1ccoc1C(=O)N1CCC(n2cc(-c3ccsc3)nn2)CC1` | -16.05 | - |
| `c1ccc(OCC2CC2)c(CNC2CCc3ncnn3C2)c1` (stereo not shown) | -8.417 | -23.63 |
| `CCC(NC(=O)c1cc(CC(C)C)nn1C)c1cc(C)ccn1` (stereo not shown) | -108.7 | 9.803 |
| `Cc1nc2c(Nc3cccc(C#N)c3)nc(N)nc2n1C` | - | 20.78 |
| `c1cnn(C2CN(Cc3nc(-c4ccsc4)no3)C2)c1` | -8.61 | -10.87 |
| `Cc1noc(C)c1-c1ccnc(C2CCN(C3CCOCC3)CC2)c1` | -52.72 | 14.55 |
| `COCCN1CCC12CCN(C(=O)Cc1cccs1)C2.O=C(O)C(F)(F)F` (stereo not shown) | -11.95 | 8.308 |
| `CNc1nc(CNC(=O)Nc2cccc(-c3nnco3)c2)cs1` | 16.88 | 2.046 |
| `CC(C)Cc1ccc(S(=O)(=O)NCCCN2CCNC(=O)C2)cc1` | 2.443 | -1.112 |
| `O=C(O)C(F)(F)F.[H][C@]12CCN(S(=O)(=O)CC)CC[C@@]1([H])S(=O)(=O)CCN2CC(C)C` | -23.77 | 13.29 |
| `Cc1ccc(NC(=O)c2nc3c(s2)CCCN3C(C)C)cn1` | -13.01 | 10.16 |
| `Cc1cc(NC(=O)C2CN(Cc3ccccc3)CCO2)ccn1` (stereo not shown) | -33.1 | 5.93 |
| `COc1cc(N2CCCC(c3nccn3Cc3cccnc3)C2)ncn1` (stereo not shown) | -29.08 | 9.373 |
| `[H][C@@]12CCN(C(=O)c3ccccn3)C[C@]1([H])OCCN(c1ccsc1)C2=O` | -10.09 | -1.315 |
| `CN1CCCC2(CCN(c3cccc(C#N)n3)C2)C1=O` (stereo not shown) | -14.94 | 2.14 |
| `O=C(O)c1cc(-c2cn[nH]c2)cc(S(=O)(=O)N2CCSCC2)c1` | -17.1 | -3.05 |
| `CN(CCc1ccncc1)C1CCCN(Cc2noc(C3CC3)n2)C1` (stereo not shown) | -21.4 | 5.456 |
| `CC(=O)c1cccc(-n2nc(C(C)=O)c(C(C)=O)c2C)c1` | -16.69 | -1.238 |
| `Cc1c(C(=O)N2CCNC(=O)C2)sc2nc[nH]c(=O)c12` | -47.31 | 15.9 |
| `O=C(c1cc(F)cc2[nH]cnc12)N1CCCC1Cn1cccn1` (stereo not shown) | 4.241 | 4.432 |
| `COc1ccc(S(=O)(=O)NCC(N)c2ccccc2)c(C)c1.Cl` (stereo not shown) | -14.72 | -1.351 |
| `CC(C)(C)c1cnc(CN2CCCC2Cn2cccn2)o1` (stereo not shown) | -48.23 | - |
| `CC(C)Cc1nc(CN2CCC(N3CCN(C)C3=O)CC2)no1` | -53.85 | -7.409 |
| `CC(C)C(NC(=O)c1ccccc1F)C(=O)Nc1cnn(C)c1` (stereo not shown) | -52.42 | 0.7203 |
| `CCS(=O)(=O)N1CCN(Cc2ccncc2)c2nc(C)ccc2C1.O=C(O)C(F)(F)F.O=C(O)C(F)(F)F` | 13.64 | -36.88 |
| `O=C(O)C(F)(F)F.[H][C@@]12CCCO[C@]1([H])[C@H](OCc1cccnc1)CN2C(=O)C1CC=CC1` | 39.05 | 6.243 |
| `CCCc1cc(NC(=O)c2ccc(Cl)c(N3CCNC3=O)c2)n[nH]1` | -615.9 | -7.036 |
| `CN(C(=O)c1ccc(C#N)cc1)c1nnc(C2CCOC2)s1` (stereo not shown) | -2.419 | 3.637 |
| `O=C(O)C(F)(F)F.[H][C@@]12CCCO[C@]1([H])[C@H](N(C)C)CN2C(=O)Cc1cccc(F)c1` | -69.09 | 1.042 |
| `Cn1cnc2c1C(COCC1CCOCC1)CN(c1ncccn1)C2.O=C(O)C(F)(F)F.O=C(O)C(F)(F)F` (stereo not shown) | -19.16 | -18.09 |
| `CCN1C(=O)CCC12CCN(S(=O)(=O)c1ccc(C#N)cc1)CC2` | -13.03 | -9.989 |
| `O=c1n(CCNc2cccc3ccccc23)nc2ccccn12` | -23.89 | 0 |
| `Cc1nc(N(C)CCCc2nccn2C)c2nc(C)oc2n1` | 22.6 | 3.59 |
| `CNC(=O)C1(N2CCC[C@H]2C(=O)NC2CCOCC2)CCOCC1.Cl` | -6.058 | 13.46 |
| `O=C(Cc1cccc(F)c1)NCCNc1ncccn1` | 2.163 | -6.684 |
| `Cc1ccc(N2CC3(CCN(Cc4nccn4C)C3)CC2=O)s1.O=C(O)C(F)(F)F` (stereo not shown) | -24.58 | 19.68 |
| `CNC(=O)c1cccc(CCNc2ccccn2)c1` | -8.134 | 6.549 |
| `CC(C)c1ncc(Cl)c(C(=O)N2CCN(C3CCCC3)CC2)n1` | -1.76 | -2.411 |
| `CCn1cc(CN2CCC(NS(C)(=O)=O)CC2)cc1C#N` | -22.34 | -6.016 |
| `CS(=O)(=O)NCCn1ccc(-c2cccs2)n1` | -12.08 | 10.83 |
| `Cc1cccc(OC2CCN(C(=O)NCCn3ccnc3)CC2)c1C` | -9.712 | 1.061 |
| `Cl.c1cnc2[nH]c(C3CCCNC3)c(CN3CCCOCC3)c2c1` (stereo not shown) | 2.009 | 25.03 |
| `C[C@@H]1CN(CC(=O)NCc2ccccn2)C[C@]1(C)O` | -44.91 | -27.23 |
| `Cc1nn(C)c(C)c1C1CCCN1CC(=O)Nc1cccnc1` (stereo not shown) | -20.02 | -1.819 |
| `Cc1ccc(CN(CCN(C)C)C(=O)Cc2cn3ccccc3n2)o1` | 7.274 | -7.234 |
| `CN(C(=O)c1cccc(OCC(F)F)n1)c1ccc2c(c1)CCO2` | -50.49 | -2.641 |
| `COc1ccc(C2CCCN2S(=O)(=O)N(C)CC(C)C)cc1` (stereo not shown) | 8.837 | -5.409 |
| `FC(F)(F)Cn1nnnc1SCCN1CCCCC1` | - | -10.77 |
| `CCc1ncc2c(n1)CN(CC(=O)Nc1nncs1)CC2` | -7.417 | -7.872 |
| `COCc1noc(-c2ccc(N3CCCCC3CO)nc2)n1` (stereo not shown) | 2.98 | -5.576 |
| `O=C(c1ccc(S(=O)(=O)NCc2ccon2)cc1)N1CCNCC1` | -23.73 | 13.08 |
| `CN(C)C(=O)CCN1CC(c2ccccc2)(c2ccccc2)CCC1=O` | -56.74 | 10.88 |
| `CN(C)C(=O)CC1CCOc2ccccc21` (stereo not shown) | -10.9 | 3.407 |
| `CCCN(CCC)C(=O)CN1CCCC1C(=O)N(C)C` (stereo not shown) | -7.161 | -5.843 |

For reference, 5 entries once more:

structure	T. brucei	Toxoplasma
CC(C)CCOc1ccc(C(C)NC(=O)Cn2cccnc2=O)cc1 (stereo not shown)	1.009	2.141
O=C(O)C(F)(F)F.[H][C@@]12CCN(c3ncccn3)[C@@]1([H])CCN2S(=O)(=O)c1ccc(F)cc1	-55.06	-2.287
CN(C)C(=O)CC1CCOc2ccccc21 (stereo not shown)	-10.9	3.407
Cc1cc(C)n(CC2CCCCN2C(=O)c2ccc3nncn3c2)n1 (stereo not shown)	-3.28	10.15
Cc1noc(C)c1-c1ccnc(C2CCN(C3CCOCC3)CC2)c1	-52.72	14.55